Laboratory results as given in patent US20160008431A1, “Tumor Therapy With Antitumor Agents In Combination With Sindbis Virus-Based Vectors” (priority 2008, published 2016).
Some results were stated once for a whole list of compounds, not compound by compound.

Tested on: ES2/Fluc tumors
Assay: Sindbis+CPT-11 ES2/Fluc tumor survival experiment
Format: in vivo, Es1^c/SCID mice
Settings: single therapy
Procedure: FIGS. 1A and 1B: Survival of tumor-bearing mice treated with Sindbis+CPT-11. (A) Mice were injected with 1.5×10^6 ES2/Fluc cells on day 0. Mice were then divided into 4 groups of 10. Treatment started on day 5, and lasted for 5 weeks, in which mice were treated 4 times a week. Mice treated with Sindbis/LacZ received I.P. injection of ˜10^7 plaque-forming units of the vector in 0.5 mL OptiMEM; mice treated with CPT-11 received I.P. injections of 15 mg/kg body weight of the recipient of CPT-11 in […]. Mice treated with the combined treatments were treated with Sindbis/LacZ and CPT-11 on the same day (Sindbis/LacZ in the morning, and CPT-11 in the evening). […] The experiment was repeated twice (for a total of 20 mice per group), and the results were combined into one graph. (B) Tumor load in mice treated with Sindbis/LacZ+CPT-11. On day 4 after injecting the mice with 10 million ES2/Fluc cells, tumors developed in various IP locations (top). […]
C.B-17 SCID mice (Taconic, Germantown, N.Y.) were bred with a plasma esterase deficient mouse model—Es1^c Foxn1^nu/J (Jackson laboratory, Bar Harbor, Me.). […] Briefly, blood was collected from F2 mice, and was tested by FACS analysis to determine T and B cell levels, and the plasma esterase activity was measured using a nitrophenyl acetate assay (Spectrum, Gardena, Calif.). […]

CCc1c2c(nc3ccc(OC(=O)N4CCC(N5CCCCC5)CC4)cc13)-c1cc3c(c(=O)n1C2)COC(=O)[C@]3(O)CC [CPT-11, irinotecan]
day by which all mice had died: ≤ 57 days
